From publication PMC11423194

Target: T1, rcsA-SmBiT (RCSA fused to the SmBiT tag) (Salmonella typhimurium) (UniProt P54698)
T1 sequence: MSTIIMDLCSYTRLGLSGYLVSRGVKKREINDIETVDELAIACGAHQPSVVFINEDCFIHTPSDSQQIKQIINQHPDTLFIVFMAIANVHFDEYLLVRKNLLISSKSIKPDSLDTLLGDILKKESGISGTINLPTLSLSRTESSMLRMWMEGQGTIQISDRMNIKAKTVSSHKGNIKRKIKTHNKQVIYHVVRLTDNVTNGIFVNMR
Test: split reporter; Lon-LgBiT and rcsA-SmBiT overexpressed in WT-VNP, ΔhtrA-VNP (AIS) and WT-VNP-htrA^OVE strains; colonies on LB plates imaged, bioluminescence flux in liquid media read on a microplate reader (n = 5)

“Lon-LgBiT (LON protease fused to the LgBiT tag) (from UniProt A0A0H3NIF1) (enzyme)” was tested, and the binding was “binds”.

No constants are given. Whether binding was seen depends on the method and setting. Binding seen in cells or lysates may run through a third protein. Binding can be weak; no strength is given. Tags and fused reporters may be left off the sequences shown.
